# According to article doi:10.1101/2025.07.20.665809 (bioRxiv, 2025):
# Amino acid sequences for entries named in this document (tags omitted).
# UniProt P04792: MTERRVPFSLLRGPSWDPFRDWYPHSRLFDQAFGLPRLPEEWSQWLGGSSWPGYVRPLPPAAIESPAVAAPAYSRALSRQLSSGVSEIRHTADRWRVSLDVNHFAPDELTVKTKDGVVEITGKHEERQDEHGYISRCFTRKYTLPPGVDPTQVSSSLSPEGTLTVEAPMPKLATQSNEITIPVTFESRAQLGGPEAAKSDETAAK
# UniProt Q16643: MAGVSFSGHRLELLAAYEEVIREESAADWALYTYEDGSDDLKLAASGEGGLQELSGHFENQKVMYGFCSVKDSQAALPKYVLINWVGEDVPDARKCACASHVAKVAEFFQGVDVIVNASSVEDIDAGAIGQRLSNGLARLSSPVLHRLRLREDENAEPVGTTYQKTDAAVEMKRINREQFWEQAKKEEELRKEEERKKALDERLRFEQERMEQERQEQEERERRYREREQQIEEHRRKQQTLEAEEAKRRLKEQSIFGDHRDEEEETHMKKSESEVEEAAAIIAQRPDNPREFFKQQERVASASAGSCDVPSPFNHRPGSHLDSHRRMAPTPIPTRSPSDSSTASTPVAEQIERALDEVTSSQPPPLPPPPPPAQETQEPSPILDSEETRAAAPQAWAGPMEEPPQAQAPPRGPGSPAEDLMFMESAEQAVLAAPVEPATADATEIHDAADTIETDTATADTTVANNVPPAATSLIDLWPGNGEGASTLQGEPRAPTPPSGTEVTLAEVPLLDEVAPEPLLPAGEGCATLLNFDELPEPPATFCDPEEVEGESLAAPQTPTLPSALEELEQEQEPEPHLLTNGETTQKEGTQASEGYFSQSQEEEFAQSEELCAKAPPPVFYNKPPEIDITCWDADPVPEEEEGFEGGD
# T1: Flag-Arc WT (Flag-hArc/Arg3.1) (human) (UniProt Q7LC44)
# T1 sequence: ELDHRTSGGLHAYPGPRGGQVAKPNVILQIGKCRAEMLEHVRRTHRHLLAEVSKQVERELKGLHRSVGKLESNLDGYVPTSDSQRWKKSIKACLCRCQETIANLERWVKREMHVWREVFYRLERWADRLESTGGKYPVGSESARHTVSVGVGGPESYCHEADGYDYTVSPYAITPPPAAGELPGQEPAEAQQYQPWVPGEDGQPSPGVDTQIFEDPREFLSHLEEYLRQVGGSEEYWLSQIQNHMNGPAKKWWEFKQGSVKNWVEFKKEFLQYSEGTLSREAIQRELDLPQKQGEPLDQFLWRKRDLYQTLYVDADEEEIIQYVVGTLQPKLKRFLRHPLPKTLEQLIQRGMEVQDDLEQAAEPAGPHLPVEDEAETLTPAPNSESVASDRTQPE
# B1: Upf1 (protein, UniProt Q92900 1-1129)
# chain: MSVEAYGPSSQTLTFLDTEEAELLGADTQGSEFEFTDFTLPSQTQTPPGGPGGPGGGGAGGPGGAGAGAAAGQLDAQVGPEGILQNGAVDDSVAKTSQLLAELNFEEDEEDTYYTKDLPIHACSYCGIHDPACVVYCNTSKKWFCNGRGNTSGSHIVNHLVRAKCKEVTLHKDGPLGETVLECYNCGCRNVFLLGFIPAKADSVVVLLCRQPCASQSSLKDINWDSSQWQPLIQDRCFLSWLVKIPSEQEQLRARQITAQQINKLEELWKENPSATLEDLEKPGVDEEPQHVLLRYEDAYQYQNIFGPLVKLEADYDKKLKESQTQDNITVRWDLGLNKKRIAYFTLPKTDSGNEDLVIIWLRDMRLMQGDEICLRYKGDLAPLWKGIGHVIKVPDNYGDEIAIELRSSVGAPVEVTHNFQVDFVWKSTSFDRMQSALKTFAVDETSVSGYIYHKLLGHEVEDVIIKCQLPKRFTAQGLPDLNHSQVYAVKTVLQRPLSLIQGPPGTGKTVTSATIVYHLARQGNGPVLVCAPSNIAVDQLTEKIHQTGLKVVRLCAKSREAIDSPVSFLALHNQIRNMDSMPELQKLQQLKDETGELSSADEKRYRALKRTAERELLMNADVICCTCVGAGDPRLAKMQFRSILIDESTQATEPECMVPVVLGAKQLILVGDHCQLGPVVMCKKAAKAGLSQSLFERLVVLGIRPIRLQVQYRMHPALSAFPSNIFYEGSLQNGVTAADRVKKGFDFQWPQPDKPMFFYVTQGQEEIASSGTSYLNRTEAANVEKITTKLLKAGAKPDQIGIITPYEGQRSYLVQYMQFSGSLHTKLYQEVEIASVDAFQGREKDFIILSCVRANEHQGIGFLNDPRRLNVALTRARYGVIIVGNPKALSKQPLWNHLLNYYKEQKVLVEGPLNNLRESLMQFSKPRKLVNTINPGARFMTTAMYDAREAIIPGSVYDRSSQGRPSSMYFQTHDQIGMISAGPSHVAAMNIPIPFNLVMPPMPPPGYFGQANGPAAGRGTPKGKTGRGGRQKNRFGLPGPSQTNLPNSQASQDVASQPFSQGALTQGYISMSQPSQMSQPGLSQPELSQDSYLGDEFKSQIDVALSQDSTYQGERAYQHGGVTGLSQY
# Target: T1, Flag-Arc WT (Flag-hArc/Arg3.1) (human)
# Assay: affinity purification with mass spectrometry
row,binding,Molecule
1,binds,"Hsp27, endogenous in HEK293T cells (from UniProt P04792 1-205)"
2,binds,Drebrin (from UniProt Q16643 1-649)
3,binds,B1

# These are yes or no findings as the source states them, for the method shown. In cells and extracts the contact can be indirect. These calls come from enrichment with a bait or labelling near it, and not all partners need be listed. Tags and fused reporters may be left off the sequences shown.
